No constants are given. Whether binding was seen depends on the method and setting. For some of these results: In cells and extracts the contact can be indirect. Some entries that bind do so weakly or less than the wild type. For some of these results: Tags and fused reporters may be left off the sequences shown. One block for each molecule: values may come before it.
Tests used:
[1] = target: T1, full-length EBP1 protein tagged with GST (Arabidopsis) (UniProt Q96327); test: pull-down; GST beads coupled with GST-EBP1 incubated overnight at 4°C with recombinant His-tagged FER-KD in 20 mM HEPES pH 7.5, 40 mM KCl, 5 mM MgCl2; washed with TBS; immunoblot with anti-His and anti-GST; both purified
T1 sequence: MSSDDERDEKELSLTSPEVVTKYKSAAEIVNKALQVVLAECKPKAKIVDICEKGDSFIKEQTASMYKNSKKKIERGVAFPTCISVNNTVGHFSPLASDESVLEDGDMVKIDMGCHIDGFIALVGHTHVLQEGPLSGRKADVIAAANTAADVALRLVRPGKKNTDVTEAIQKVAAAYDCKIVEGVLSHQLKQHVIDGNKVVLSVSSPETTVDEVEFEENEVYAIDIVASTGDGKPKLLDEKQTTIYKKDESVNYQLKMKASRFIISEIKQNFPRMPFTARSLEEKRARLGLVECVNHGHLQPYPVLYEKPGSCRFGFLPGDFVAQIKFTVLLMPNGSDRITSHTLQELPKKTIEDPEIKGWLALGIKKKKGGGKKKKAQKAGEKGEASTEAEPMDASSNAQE

Amino acid sequences for entries named in this document (tags omitted). A change or cut given only in a name is not applied to a line headed by its entry. Chains listed by the source or under a name are the forms on record and can include a tag or linker. Residues count along the entry.
UniProt Q9SCZ4: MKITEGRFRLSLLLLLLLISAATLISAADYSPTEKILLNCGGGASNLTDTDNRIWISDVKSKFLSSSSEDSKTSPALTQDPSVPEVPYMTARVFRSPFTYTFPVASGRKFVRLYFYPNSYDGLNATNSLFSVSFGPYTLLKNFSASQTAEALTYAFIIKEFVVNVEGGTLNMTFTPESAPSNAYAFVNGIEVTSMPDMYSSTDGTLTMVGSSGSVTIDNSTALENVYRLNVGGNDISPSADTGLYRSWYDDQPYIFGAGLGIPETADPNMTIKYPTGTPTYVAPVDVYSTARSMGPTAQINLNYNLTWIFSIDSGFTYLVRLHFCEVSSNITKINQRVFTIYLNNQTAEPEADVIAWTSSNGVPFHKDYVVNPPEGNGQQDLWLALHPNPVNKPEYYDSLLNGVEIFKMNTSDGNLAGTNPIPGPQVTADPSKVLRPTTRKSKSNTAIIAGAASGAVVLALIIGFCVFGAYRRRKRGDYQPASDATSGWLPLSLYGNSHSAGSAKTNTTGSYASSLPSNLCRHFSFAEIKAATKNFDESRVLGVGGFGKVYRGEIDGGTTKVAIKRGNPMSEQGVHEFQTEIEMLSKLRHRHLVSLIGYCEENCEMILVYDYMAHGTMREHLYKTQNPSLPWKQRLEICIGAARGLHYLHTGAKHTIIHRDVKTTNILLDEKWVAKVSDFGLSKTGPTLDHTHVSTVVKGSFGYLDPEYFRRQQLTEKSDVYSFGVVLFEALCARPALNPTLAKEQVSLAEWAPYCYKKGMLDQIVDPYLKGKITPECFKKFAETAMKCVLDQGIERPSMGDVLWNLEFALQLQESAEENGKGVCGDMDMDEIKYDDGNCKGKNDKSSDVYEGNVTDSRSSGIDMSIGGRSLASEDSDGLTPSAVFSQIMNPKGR
FER-nVenus: residues 28-895 of Q9SCZ4
FER kinase domain (FER-KD, 469–896 aa) fused to the GAL4 DNA-binding domain: residues 469-895 of Q9SCZ4
kinase-dead version of FER-KD containing the Lys565-to-Arg mutation, His-tagged (Q9SCZ4, form named): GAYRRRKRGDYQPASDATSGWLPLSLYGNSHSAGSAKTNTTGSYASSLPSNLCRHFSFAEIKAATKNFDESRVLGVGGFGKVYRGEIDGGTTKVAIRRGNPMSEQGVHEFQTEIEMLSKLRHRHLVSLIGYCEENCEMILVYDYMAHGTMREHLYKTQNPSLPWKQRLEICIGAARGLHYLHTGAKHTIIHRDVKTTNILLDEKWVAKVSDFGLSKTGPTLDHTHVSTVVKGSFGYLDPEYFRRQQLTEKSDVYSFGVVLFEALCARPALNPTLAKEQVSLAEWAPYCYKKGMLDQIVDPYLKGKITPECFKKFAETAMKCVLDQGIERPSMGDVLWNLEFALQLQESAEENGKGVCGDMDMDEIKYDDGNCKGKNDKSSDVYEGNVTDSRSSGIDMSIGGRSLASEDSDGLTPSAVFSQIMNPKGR

FER-FLAG (Arabidopsis) = FER-FLAG (Arabidopsis) (UniProt Q9SCZ4); test: co-IP; anti-FLAG M2 agarose, extract of Ubi::FER-FLAG transgenic plants, eluted with 3 × FLAG peptide; blots with anti-FLAG and anti-EBP1
[2] = target: FERONIA (FER), endogenous (Arabidopsis (endogenous in seedlings)) (UniProt Q9SCZ4); test: co-IP; anti-FER antibody on A/G agarose, extracts of 7-DAG seedlings in NEBT buffer (0.5% Triton X-100), with or without 1 μM RALF1 for 30 minutes; preimmune serum as negative control; blots with anti-FER and anti-EBP1
[3] = target: FER kinase domain (FER-KD, 469–896 aa) fused to the GAL4 DNA-binding domain (Arabidopsis) (UniProt Q9SCZ4); test: two-hybrid; directed test: EBP1 in the AD vector (pGADT7), FER-KD or CrRLK1L members in the BD vector (pGBKT7), yeast strain AH109; SD/-Ade/-Leu/-His medium with 20 mM 3-AT
FER-nVenus (Arabidopsis) = FER-nVenus (Arabidopsis) (UniProt Q9SCZ4); test: split reporter; BiFC of cCFP and nVenus fusions in Arabidopsis protoplasts, 16 hours at 23°C in the dark; FM4-64 marks the plasma membrane
[4] = target: FER kinase domain (FER-KD, 469–896 aa) fused to the GAL4 DNA-binding domain (Arabidopsis) (UniProt Q9SCZ4); test: two-hybrid; library screen: FER-KD in pGBKT7 as bait against an Arabidopsis cDNA library, yeast strain AH109

binding [1]: binds
Molecule: FER-KD tagged with 6 × His (from UniProt Q9SCZ4 469-895) (domain or fragment)

binding [1]: binds
Molecule: kinase-dead version of FER-KD containing the Lys565-to-Arg mutation, His-tagged (from UniProt Q9SCZ4 469-895) (domain or fragment)

binding (FER-FLAG (Arabidopsis)): binds
binding [2]: binds
B1: ErbB3-binding protein 1 (EBP1), endogenous (protein, UniProt Q96327-3 1-401)
chain: MSSDDERDEKELSLTSPEVVTKYKSAAEIVNKALQVVLAECKPKAKIVDICEKGDSFIKEQTASMYKNSKKKIERGVAFPTCISVNNTVGHFSPLASDESVLEDGDMVKIDMGCHIDGFIALVGHTHVLQEGPLSGRKADVIAAANTAADVALRLVRPGKKNTDVTEAIQKVAAAYDCKIVEGVLSHQLKQHVIDGNKVVLSVSSPETTVDEVEFEENEVYAIDIVASTGDGKPKLLDEKQTTIYKKDESVNYQLKMKASRFIISEIKQNFPRMPFTARSLEEKRARLGLVECVNHGHLQPYPVLYEKPGSCRFGFLPGDFVAQIKFTVLLMPNGSDRITSHTLQELPKKTIEDPEIKGWLALGIKKKKGGGKKKKAQKAGEKGEASTEAEPMDASSNAQE

binding [3]: binds
B2: full-length EBP1 fused to the GAL4 DNA-activating domain (protein, UniProt Q96327-3 1-401)
chain: MSSDDERDEKELSLTSPEVVTKYKSAAEIVNKALQVVLAECKPKAKIVDICEKGDSFIKEQTASMYKNSKKKIERGVAFPTCISVNNTVGHFSPLASDESVLEDGDMVKIDMGCHIDGFIALVGHTHVLQEGPLSGRKADVIAAANTAADVALRLVRPGKKNTDVTEAIQKVAAAYDCKIVEGVLSHQLKQHVIDGNKVVLSVSSPETTVDEVEFEENEVYAIDIVASTGDGKPKLLDEKQTTIYKKDESVNYQLKMKASRFIISEIKQNFPRMPFTARSLEEKRARLGLVECVNHGHLQPYPVLYEKPGSCRFGFLPGDFVAQIKFTVLLMPNGSDRITSHTLQELPKKTIEDPEIKGWLALGIKKKKGGGKKKKAQKAGEKGEASTEAEPMDASSNAQE

binding (FER-nVenus (Arabidopsis)): binds
B3: EBP1–C-terminal cyan fluorescent protein (cCFP) (protein, UniProt Q96327-3 1-401)
chain: MSSDDERDEKELSLTSPEVVTKYKSAAEIVNKALQVVLAECKPKAKIVDICEKGDSFIKEQTASMYKNSKKKIERGVAFPTCISVNNTVGHFSPLASDESVLEDGDMVKIDMGCHIDGFIALVGHTHVLQEGPLSGRKADVIAAANTAADVALRLVRPGKKNTDVTEAIQKVAAAYDCKIVEGVLSHQLKQHVIDGNKVVLSVSSPETTVDEVEFEENEVYAIDIVASTGDGKPKLLDEKQTTIYKKDESVNYQLKMKASRFIISEIKQNFPRMPFTARSLEEKRARLGLVECVNHGHLQPYPVLYEKPGSCRFGFLPGDFVAQIKFTVLLMPNGSDRITSHTLQELPKKTIEDPEIKGWLALGIKKKKGGGKKKKAQKAGEKGEASTEAEPMDASSNAQE

binding [4]: binds
B4: EBP1 truncated version (229–401 aa), clone from the Arabidopsis cDNA library (domain or fragment, UniProt Q96327-3 229-401)
chain: TGDGKPKLLDEKQTTIYKKDESVNYQLKMKASRFIISEIKQNFPRMPFTARSLEEKRARLGLVECVNHGHLQPYPVLYEKPGSCRFGFLPGDFVAQIKFTVLLMPNGSDRITSHTLQELPKKTIEDPEIKGWLALGIKKKKGGGKKKKAQKAGEKGEASTEAEPMDASSNAQE

Reference: publication PMC6195255, “EBP1 nuclear accumulation negatively feeds back on FERONIA-mediated RALF1 signaling”
